Measured values taken from patent EP3400955B1, “USE OF CRYPTONIN FOR TREATMENT OF CANCER” (Istanbul Universitesi Rektorlugu, priority 2016, dated 2025).
At least one peptide structure holds a part that was inferred or is arguable (an end, a ring closure or a residue). Ends that are not written are not given here.

Experiments:
MCF-7 cells [1] = assay: Cell viability test (MTT); format: cell-based; conditions: 24 hours, control = 100%, mean ± SD
MDA-MB 231 cells [2] = assay: Cell viability test (MTT); format: cell-based; conditions: 24 hours, control = 100%, mean ± SD
[3] = system: caspase-3 activity in MCF-7 cells; assay: Caspase-3 activity (colorimetric, DEVD-pNA); format: cell-based; conditions: 24 hours, versus control group (= 1)
[4] = system: caspase-3 activity in MDA-MB 231 cells; assay: Caspase-3 activity (colorimetric, DEVD-pNA); format: cell-based; conditions: 24 hours, versus control group (= 1)
MCF-7 = assay: DNA fragmentation analysis (agarose gel electrophoresis); format: cell-based; conditions: 25, 50, 100 and 200 µg/ml, 24-hour incubation
MDA-MB 231 = assay: as above; format: cell-based; conditions: 25, 50, 100 and 200 µg/ml, 24-hour incubation
MCF-7 cells [5] = assay: Type of cell death by acridine orange/ethidium bromide double staining; format: cell-based; conditions: 24 hours, mean +/- Standard Error
Protocol: (§1) Cells were stained with acridine orange/ethidium bromide double staining method to morphologically analyze whether cryptonin-induced cell death occurs by a necrotic pathway or by an apoptotic pathway. For this purpose, breast cancer cells were plated in a 24-well plate, with 10,000 cells being present in each well and incubated for 24 hours at the above-mentioned different concentrations of antimicrobial peptides. After incubation, a mixture of acridine orange (Sigma) (100 µg/ml) /ethidium bromide stain (Sigma) (100 µg/ml) prepared in PBS was applied to the cells and the cells were visualized using a FITC/CY3 filter on a fluorescent microscope (Nikon DS5MCU2). 200 cells from each group were counted according to the staining pattern. Cells were grouped as viable, apoptotic and necrotic according to the staining pattern of their nuclei (Spector et al., 1998). Viable cells were distinguished as having green chromatin nuclei in an organized structure, apoptotic cells were distinguished as having green or orange fragmented nuclei, and necrotic cells were distinguished as normal colored but having orange nuclei like normal cells (Ribble et al., 2005).

MDA-MB 231 cells [6] = assay: as above; format: cell-based; conditions: 24 hours, mean +/- Standard Error
Protocol: as §1

MCF-7 Cell Membrane = assay: Membrane damage by scanning electron microscope; format: cell-based; conditions: 100 µg/ml, 24-hour incubation
MDA-MB 231 Cell Membrane = assay: Membrane damage by scanning electron microscope; format: cell-based; conditions: 100 µg/ml, 24-hour incubation
MDA-MB 231 cells [7] = assay: Peptide binding affinity for cells (biotin-conjugated peptide, fluorescence); format: cell-based; conditions: 100 µg/ml, compared with MCF-7 cells
3T3 fibroblast cells = assay: as above; format: cell-based, mouse; conditions: compared with MCF-7 and MDA-MB 231 cells

GLLNGLALRLGKRALKKIIKRLCR [cryptonin]
cell viability (MCF-7 cells [1]; 2.5 µg/ml): 97.6±6.6% | cell viability (MCF-7 cells [1]; 5 µg/ml): 98.24±7.4% | cell viability (MCF-7 cells [1]; 7.5 µg/ml): 82.2±10.3% | cell viability (MCF-7 cells [1]; 10 µg/ml): 76.57±9.9% | cell viability (MCF-7 cells [1]; 25 ug/ml): 53.95±7.5% | cell viability (MCF-7 cells [1]; 50 µg/ml): 7.82±1.8% | cell viability (MCF-7 cells [1]; 100 ug/ml): 1.16±0.5% | cell viability (MCF-7 cells [1]; 200 µg/ml): 1.81±0.9% | cell viability (MDA-MB 231 cells [2]; 2.5 µg/ml): 97.28±2.2% | cell viability (MDA-MB 231 cells [2]; 5 µg/ml): 94.34±4.5% | cell viability (MDA-MB 231 cells [2]; 7.5 µg/ml): 89.34±6.6% | cell viability (MDA-MB 231 cells [2]; 10 µg/ml): 90.38±4.8% | cell viability (MDA-MB 231 cells [2]; 25 µg/ml): 70.25±5.8% | cell viability (MDA-MB 231 cells [2]; 50 ug/ml): 29.31±8.7% | cell viability (MDA-MB 231 cells [2]; 100 µg/ml): 0.99±0.06% | cell viability (MDA-MB 231 cells [2]; 200 µg/ml): 0.65±0.1% | caspase-3 activity ([3]; 10 µg/ml): 0.93±0.03 fold increase | caspase-3 activity ([3]; 25 µg/ml): 1.03±0.50 fold increase | caspase-3 activity ([3]; 50 µg/ml): 0.92±0 fold increase | caspase-3 activity ([3]; 100 µg/ml): 1.05±0.03 fold increase | caspase-3 activity ([4]; 10 µg/ml): 1.08±0.07 fold increase | caspase-3 activity ([4]; 25 µg/ml): 1.07±0.04 fold increase | caspase-3 activity ([4]; 50 µg/ml): 1.02±0.05 fold increase | caspase-3 activity ([4]; 100 µg/ml): 1.06±0.04 fold increase | DNA fragmentation (MCF-7): No fragmentation was observed | DNA fragmentation (MDA-MB 231): No fragmentation was observed | Apoptotic cell % (MCF-7 cells [5]; 10 µg/ml): 0.63±0.3% | Necrotic cell % (MCF-7 cells [5]; 10 µg/ml): 4.48±4.9% | Apoptotic cell % (MCF-7 cells [5]; 25 µg/ml): 1.11±1% | Necrotic cell % (MCF-7 cells [5]; 25 µg/ml): 13.6±4.7% | Apoptotic cell % (MCF-7 cells [5]; 50 µg/ml): 2.41±1.6% | Necrotic cell % (MCF-7 cells [5]; 50 µg/ml): 96.52±1.5% | Apoptotic cell % (MCF-7 cells [5]; 100 µg/ml): 2.06±1.8% | Necrotic cell % (MCF-7 cells [5]; 100 µg/ml): 97.88±1.8% | Apoptotic cell % (MCF-7 cells [5]; 200 µg/ml): 0±0% | Necrotic cell % (MCF-7 cells [5]; 200 µg/ml): 97.86±1.8% | Apoptotic cell % (MDA-MB 231 cells [6]; 10 µg/ml): 1.88±1. % | Necrotic cell % (MDA-MB 231 cells [6]; 10 µg/ml): 2.24±0.99% | Apoptotic cell % (MDA-MB 231 cells [6]; 25 µg/ml): 2.26±1.7% | Necrotic cell % (MDA-MB 231 cells [6]; 25 µg/ml): 2.19±2.7% | Apoptotic cell % (MDA-MB 231 cells [6]; 50 µg/ml): 2.38±1.5% | Necrotic cell % (MDA-MB 231 cells [6]; 50 µg/ml): 52.49±4.2% | Apoptotic cell % (MDA-MB 231 cells [6]; 100 µg/ml): 1.87±1.5% | Necrotic cell % (MDA-MB 231 cells [6]; 100 µg/ml): 98.09±1.5% | Apoptotic cell % (MDA-MB 231 cells [6]; 200 µg/ml): 0±0% | Necrotic cell % (MDA-MB 231 cells [6]; 200 µg/ml): 100±0% | effect on cell membrane (scanning electron microscope) (MCF-7 Cell Membrane): led to form pores and blebs on the cell membrane and caused the cell to shrink and contract | effect on cell membrane (scanning electron microscope) (MDA-MB 231 Cell Membrane): led to form pores and many small blebs | binding affinity for cells (average fluorescence intensity) (MDA-MB 231 cells [7]): less affinity for MDA-MB 231 cells as compared to MCF-7 cells | binding affinity for cells (average fluorescence intensity) (3T3 fibroblast cells; 100 µg/ml): the affinity for 3T3 cells is less than that of MCF-7 cells and MDA-MB 231 cells | binding affinity for cells (average fluorescence intensity) (3T3 fibroblast cells; 200 µg/ml): is less than that of MCF-7 cells and MDA-MB 231 cells
